Reference: patent US20170035863A1 (UNIVERSITY OF LEEDS, priority 2014, published 2017)

Assay: peptide synthesis
Conditions: whole synthesis

With H-DVAEPRMHKTAPPFDFEAIPEEYY(SO3)L-OH the “purity (crude or final not stated)” value was 95.6%.
